Experimental data as given in the supplement of paper PMC12819154, “High-throughput peptide-centric local stability assay extends protein–ligand identification to membrane proteins, tissues and bacteria” (Nature Structural & Molecular Biology, 2025).
The list shows a part of the results. Most values lie at the level of the controls, where differences are scatter.

Chains of the proteins cited; added tags and fusions are not shown. Lines headed by an entry give the natural chain unless they say otherwise; changes in a name come on top.
UniProt Q8TB37: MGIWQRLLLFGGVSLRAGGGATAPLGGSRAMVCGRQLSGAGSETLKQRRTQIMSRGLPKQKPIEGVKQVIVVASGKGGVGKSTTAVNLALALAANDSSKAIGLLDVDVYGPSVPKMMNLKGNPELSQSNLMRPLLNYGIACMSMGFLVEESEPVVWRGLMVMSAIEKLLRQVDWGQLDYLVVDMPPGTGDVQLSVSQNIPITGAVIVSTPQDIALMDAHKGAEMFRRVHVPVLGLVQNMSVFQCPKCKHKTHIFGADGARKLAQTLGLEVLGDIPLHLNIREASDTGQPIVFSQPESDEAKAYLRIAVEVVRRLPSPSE
UniProt Q8NEC7: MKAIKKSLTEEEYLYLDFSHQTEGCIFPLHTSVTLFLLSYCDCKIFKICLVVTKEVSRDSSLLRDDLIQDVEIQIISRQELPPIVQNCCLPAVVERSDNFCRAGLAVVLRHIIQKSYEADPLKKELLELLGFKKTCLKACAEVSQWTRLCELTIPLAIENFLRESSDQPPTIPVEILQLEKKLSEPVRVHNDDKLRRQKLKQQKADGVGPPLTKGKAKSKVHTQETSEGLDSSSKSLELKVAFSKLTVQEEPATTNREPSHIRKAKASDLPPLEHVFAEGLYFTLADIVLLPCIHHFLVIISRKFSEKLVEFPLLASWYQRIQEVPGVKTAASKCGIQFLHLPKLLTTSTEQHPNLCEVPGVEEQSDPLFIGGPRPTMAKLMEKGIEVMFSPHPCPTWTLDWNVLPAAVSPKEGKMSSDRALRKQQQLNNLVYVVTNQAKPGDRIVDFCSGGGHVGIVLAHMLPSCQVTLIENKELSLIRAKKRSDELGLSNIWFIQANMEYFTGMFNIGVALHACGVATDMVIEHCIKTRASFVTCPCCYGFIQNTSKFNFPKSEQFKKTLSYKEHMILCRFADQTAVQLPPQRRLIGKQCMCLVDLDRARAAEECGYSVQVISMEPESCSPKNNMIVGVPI
UniProt Q8NDZ2: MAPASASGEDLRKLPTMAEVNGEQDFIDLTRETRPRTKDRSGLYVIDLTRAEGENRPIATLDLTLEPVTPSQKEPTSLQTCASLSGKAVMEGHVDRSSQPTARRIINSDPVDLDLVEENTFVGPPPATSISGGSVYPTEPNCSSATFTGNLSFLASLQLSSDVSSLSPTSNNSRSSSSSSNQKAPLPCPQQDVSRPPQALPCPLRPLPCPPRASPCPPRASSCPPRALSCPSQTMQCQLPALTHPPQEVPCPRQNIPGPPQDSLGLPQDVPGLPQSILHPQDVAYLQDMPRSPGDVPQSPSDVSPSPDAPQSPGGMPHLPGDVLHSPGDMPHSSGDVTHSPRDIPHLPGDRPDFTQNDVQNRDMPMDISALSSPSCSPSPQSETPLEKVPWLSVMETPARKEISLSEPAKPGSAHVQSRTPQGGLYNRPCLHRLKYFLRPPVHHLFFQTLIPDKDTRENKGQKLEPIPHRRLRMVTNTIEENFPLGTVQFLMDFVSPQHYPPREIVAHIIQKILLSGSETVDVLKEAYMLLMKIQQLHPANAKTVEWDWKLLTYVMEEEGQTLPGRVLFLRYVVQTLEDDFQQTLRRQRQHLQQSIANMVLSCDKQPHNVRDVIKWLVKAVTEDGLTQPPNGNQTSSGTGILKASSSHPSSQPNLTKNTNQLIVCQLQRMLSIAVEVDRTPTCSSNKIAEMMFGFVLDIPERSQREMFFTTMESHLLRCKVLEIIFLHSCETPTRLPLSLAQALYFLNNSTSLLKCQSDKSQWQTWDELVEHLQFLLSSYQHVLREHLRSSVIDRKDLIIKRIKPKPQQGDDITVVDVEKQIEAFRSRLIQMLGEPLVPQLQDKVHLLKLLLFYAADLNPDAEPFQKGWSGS
UniProt Q8NEK5: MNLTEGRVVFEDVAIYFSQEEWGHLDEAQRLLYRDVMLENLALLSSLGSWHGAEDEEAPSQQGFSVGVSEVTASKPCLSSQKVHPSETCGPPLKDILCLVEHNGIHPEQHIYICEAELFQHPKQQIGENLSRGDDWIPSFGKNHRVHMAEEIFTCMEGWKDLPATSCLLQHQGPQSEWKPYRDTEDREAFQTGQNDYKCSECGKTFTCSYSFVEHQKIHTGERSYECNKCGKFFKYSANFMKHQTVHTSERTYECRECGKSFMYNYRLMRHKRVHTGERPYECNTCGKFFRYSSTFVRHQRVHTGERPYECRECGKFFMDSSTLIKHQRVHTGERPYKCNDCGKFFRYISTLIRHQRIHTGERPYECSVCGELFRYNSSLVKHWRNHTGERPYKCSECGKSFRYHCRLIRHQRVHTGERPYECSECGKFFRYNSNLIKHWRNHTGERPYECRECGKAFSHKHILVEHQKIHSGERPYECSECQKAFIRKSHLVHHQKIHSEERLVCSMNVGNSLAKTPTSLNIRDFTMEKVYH
UniProt Q8NCE2: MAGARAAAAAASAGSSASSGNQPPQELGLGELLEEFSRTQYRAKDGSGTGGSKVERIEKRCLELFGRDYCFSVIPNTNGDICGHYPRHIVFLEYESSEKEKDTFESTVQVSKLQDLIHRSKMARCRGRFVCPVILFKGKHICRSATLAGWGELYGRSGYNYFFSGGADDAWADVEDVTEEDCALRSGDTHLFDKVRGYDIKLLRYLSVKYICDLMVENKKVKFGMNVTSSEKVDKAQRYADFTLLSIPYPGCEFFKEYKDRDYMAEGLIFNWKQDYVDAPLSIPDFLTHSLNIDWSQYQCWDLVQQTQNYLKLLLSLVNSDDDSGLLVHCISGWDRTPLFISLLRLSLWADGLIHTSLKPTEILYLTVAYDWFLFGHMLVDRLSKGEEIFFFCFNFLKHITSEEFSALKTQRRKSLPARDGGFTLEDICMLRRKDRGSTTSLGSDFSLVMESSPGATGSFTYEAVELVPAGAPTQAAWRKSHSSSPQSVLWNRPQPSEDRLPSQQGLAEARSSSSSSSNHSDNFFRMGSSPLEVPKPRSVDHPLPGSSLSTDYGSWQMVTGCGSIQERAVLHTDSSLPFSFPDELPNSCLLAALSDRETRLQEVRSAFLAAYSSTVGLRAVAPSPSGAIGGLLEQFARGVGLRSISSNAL
UniProt Q8NFW8: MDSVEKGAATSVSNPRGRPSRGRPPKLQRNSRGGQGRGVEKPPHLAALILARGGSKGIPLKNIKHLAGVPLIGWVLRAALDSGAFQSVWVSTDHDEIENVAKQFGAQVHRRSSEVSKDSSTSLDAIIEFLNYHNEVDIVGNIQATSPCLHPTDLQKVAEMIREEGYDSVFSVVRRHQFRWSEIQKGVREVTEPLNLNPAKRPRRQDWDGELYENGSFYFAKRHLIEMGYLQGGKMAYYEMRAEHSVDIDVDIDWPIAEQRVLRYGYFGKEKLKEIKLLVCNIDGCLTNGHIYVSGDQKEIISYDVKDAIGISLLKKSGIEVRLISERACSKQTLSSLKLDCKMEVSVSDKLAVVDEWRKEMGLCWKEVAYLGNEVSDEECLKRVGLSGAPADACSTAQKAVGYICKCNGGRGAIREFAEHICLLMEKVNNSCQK
UniProt Q8NCW5: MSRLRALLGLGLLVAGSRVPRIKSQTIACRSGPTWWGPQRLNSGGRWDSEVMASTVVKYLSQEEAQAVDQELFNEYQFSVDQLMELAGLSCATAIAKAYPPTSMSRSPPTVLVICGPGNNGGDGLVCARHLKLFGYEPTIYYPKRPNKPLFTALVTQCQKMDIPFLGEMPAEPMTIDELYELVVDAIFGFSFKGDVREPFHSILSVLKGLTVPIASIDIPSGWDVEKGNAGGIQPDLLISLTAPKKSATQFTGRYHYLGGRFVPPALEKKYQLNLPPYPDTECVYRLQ
UniProt Q8N7X4: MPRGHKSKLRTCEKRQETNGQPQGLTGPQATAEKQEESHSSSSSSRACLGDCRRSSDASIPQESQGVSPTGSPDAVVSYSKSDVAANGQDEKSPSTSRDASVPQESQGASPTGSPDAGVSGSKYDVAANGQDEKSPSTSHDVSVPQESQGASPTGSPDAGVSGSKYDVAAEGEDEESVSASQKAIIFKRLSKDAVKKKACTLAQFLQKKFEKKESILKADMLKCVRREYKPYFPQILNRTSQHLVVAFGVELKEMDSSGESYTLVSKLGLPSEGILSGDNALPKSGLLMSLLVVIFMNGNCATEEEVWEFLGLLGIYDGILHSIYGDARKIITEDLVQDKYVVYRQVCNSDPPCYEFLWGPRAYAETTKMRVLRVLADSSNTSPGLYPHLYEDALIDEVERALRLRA
UniProt Q8TAK5: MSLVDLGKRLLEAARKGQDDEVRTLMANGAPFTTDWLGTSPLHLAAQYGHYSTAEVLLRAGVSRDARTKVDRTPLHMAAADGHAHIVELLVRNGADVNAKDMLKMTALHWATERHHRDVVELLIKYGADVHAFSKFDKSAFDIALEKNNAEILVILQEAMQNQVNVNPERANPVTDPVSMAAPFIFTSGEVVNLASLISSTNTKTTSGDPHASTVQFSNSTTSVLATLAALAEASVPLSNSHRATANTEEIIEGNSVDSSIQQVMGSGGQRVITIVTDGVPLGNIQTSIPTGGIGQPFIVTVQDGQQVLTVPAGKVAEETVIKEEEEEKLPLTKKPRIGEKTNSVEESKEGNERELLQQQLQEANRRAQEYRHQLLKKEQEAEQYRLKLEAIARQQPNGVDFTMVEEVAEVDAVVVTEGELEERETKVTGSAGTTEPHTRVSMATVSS

compound: CN[C@@H]1C[C@H]2O[C@@](C)([C@@H]1OC)n1c3ccccc3c3c4c(c5c6ccccc6n2c5c31)C(=O)NC4 [staurosporine]; test: log2 fold change of tryptic peptide abundance, ligand vs vehicle (limited proteolysis) (log2 ratio); higher = more trypsin-susceptible (destabilized); conditions: ligand concentration: 20 uM; sample: K562 cleared lysate; digestion: 4 min, 22 C (HT-PELSA RT4min, Orbitrap Astral)

Row | Target | log2 fold change
1 | NUBPL (peptide sequence: GLMVMSAIEK, peptide start residue: 158) (UniProt Q8TB37) | -0.223
2 | GSTCD (peptide sequence: ELLELLGFKK, peptide start residue: 125) (UniProt Q8NEC7) | 0.308
3 | UniProt Q8NDZ2 (peptide sequence: EISLSEPAKPGSAHVQSR, peptide start residue: 402) | 0.264
4 | UniProt Q8NEK5 (peptide sequence: TPTSLNIR, peptide start residue: 517) | 0.247
5 | MTMR14 (peptide sequence: HIVFLEYESSEK, peptide start residue: 88) (UniProt Q8NCE2) | -0.568
6 | CMAS (peptide sequence: GVEKPPHLAALILAR, peptide start residue: 38) (UniProt Q8NFW8) | 0.136
7 | UniProt Q8NCW5 (peptide sequence: SGPTWWGPQR, peptide start residue: 31) | 0.0201
8 | UniProt Q8N7X4 (peptide sequence: PYFPQILNR, peptide start residue: 231) | -0.181
9 | GABPB2 (peptide sequence: VAEETVIKEEEEEKLPLTK, peptide start residue: 316) (UniProt Q8TAK5) | -0.813
